# Screening data, single-dose tests

Chains of the proteins cited; added tags and fusions are not shown. Residues count along the entry.
UniProt P9WNZ1, whole entry: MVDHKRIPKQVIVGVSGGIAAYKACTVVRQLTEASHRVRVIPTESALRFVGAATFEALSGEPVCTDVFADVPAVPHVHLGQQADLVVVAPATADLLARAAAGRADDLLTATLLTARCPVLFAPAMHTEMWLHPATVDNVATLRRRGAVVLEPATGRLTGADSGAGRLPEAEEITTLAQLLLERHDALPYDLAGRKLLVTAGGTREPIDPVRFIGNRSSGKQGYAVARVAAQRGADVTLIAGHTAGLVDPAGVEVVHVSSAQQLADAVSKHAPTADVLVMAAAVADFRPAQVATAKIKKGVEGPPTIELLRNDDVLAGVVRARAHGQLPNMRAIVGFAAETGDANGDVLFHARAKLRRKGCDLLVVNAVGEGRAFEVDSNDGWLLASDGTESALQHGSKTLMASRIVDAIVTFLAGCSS
UniProt I6X8D2, whole entry: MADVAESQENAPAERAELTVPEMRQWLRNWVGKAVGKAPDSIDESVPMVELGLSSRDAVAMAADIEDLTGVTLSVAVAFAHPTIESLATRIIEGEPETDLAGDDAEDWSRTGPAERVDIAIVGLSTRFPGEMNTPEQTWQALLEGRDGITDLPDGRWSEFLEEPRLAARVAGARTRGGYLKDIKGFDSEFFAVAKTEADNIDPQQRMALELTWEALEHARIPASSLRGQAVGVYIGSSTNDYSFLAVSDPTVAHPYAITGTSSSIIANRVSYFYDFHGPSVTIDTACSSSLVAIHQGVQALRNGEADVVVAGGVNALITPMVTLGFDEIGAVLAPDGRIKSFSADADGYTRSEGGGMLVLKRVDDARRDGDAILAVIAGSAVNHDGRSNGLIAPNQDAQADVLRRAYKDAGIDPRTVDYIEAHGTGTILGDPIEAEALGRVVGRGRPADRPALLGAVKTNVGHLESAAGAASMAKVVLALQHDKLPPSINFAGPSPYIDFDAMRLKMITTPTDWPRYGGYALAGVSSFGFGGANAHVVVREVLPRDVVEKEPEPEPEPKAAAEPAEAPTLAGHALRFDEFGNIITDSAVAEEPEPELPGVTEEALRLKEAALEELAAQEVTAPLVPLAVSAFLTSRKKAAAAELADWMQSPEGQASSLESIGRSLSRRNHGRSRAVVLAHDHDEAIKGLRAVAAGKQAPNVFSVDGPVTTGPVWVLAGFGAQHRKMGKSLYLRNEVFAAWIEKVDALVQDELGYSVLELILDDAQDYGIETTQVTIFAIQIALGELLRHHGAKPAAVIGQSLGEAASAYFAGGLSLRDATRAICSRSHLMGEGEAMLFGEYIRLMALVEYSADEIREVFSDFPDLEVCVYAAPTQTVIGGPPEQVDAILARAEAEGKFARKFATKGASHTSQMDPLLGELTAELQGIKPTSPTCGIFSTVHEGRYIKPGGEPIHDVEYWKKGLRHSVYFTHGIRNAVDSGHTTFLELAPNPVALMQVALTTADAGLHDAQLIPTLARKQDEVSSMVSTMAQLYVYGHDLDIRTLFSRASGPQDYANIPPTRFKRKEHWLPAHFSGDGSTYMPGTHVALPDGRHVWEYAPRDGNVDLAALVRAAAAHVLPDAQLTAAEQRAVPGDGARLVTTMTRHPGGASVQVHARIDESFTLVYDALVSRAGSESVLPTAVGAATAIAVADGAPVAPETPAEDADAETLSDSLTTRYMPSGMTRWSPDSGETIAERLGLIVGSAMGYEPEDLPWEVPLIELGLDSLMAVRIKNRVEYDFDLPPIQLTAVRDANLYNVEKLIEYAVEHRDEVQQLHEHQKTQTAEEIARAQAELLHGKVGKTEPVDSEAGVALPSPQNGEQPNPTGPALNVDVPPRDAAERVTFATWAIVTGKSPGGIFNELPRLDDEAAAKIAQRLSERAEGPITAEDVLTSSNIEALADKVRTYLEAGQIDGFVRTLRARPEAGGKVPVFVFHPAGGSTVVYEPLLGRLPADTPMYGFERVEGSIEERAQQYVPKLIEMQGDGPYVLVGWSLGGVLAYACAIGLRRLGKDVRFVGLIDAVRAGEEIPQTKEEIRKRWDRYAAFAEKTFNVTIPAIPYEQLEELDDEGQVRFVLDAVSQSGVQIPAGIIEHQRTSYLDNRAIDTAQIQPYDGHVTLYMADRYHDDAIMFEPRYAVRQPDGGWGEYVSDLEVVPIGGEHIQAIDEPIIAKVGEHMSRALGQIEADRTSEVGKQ
UniProt P9WFT3, whole entry: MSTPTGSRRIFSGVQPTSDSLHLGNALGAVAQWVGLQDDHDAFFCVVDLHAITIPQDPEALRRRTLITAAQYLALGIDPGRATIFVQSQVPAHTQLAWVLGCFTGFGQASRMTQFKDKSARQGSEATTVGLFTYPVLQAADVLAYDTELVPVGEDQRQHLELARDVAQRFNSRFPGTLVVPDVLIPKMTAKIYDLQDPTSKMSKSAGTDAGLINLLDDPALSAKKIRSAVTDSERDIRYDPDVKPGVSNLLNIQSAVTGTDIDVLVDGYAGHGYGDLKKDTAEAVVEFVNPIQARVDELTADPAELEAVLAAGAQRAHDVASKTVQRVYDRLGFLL
UniProt A4I591, 1-473: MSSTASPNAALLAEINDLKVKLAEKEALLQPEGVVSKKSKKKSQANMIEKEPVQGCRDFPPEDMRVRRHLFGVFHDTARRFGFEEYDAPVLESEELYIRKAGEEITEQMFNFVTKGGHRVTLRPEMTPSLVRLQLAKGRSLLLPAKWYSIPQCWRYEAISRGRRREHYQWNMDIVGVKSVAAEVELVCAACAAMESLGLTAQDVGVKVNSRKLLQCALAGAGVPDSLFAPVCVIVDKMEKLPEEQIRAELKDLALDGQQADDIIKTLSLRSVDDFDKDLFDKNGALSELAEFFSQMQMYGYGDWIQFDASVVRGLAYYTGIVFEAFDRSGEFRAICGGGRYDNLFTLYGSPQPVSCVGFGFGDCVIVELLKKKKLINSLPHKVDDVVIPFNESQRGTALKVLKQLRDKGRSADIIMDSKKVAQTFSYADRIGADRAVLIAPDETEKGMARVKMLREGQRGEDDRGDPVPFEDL

Source: ChEMBL document CHEMBL3988442, “University of Dundee, Small-Polar-MMV Screening Library” (2021).

CoaBC: 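Enzyme assay of CoaBC with a phosphate dye (Biomol Green) read at 650 nm. Target: Coenzyme A biosynthesis protein CoaBC, Mycobacterium tuberculosis (UniProt P9WNZ1). Concentration: 30 µM. Direction is inferred from only a few compounds that gave an IC50; most scored high, so higher reads as stronger inhibition. Most strong results did not repeat in a second test. About 67,000 compounds were tested under these conditions; 0.06% (about 40) showed 50% or more at least once.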
Pks13 thioesterase: 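Enzyme assay of the thioesterase domain of polyketide synthase 13; the read-out is not stated. Target: Polyketide synthase Pks13, Mycobacterium tuberculosis (UniProt I6X8D2). Compounds at 30 µM. Higher reads as stronger inhibition (inferred from which compounds were picked for retests). About 67,000 compounds were tested under these conditions; 0.46% (about 300) showed 50% or more at least once.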
MtTrpRS: 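Enzyme assay of tryptophanyl-tRNA synthetase; the read-out is not stated. Target: Tryptophan-tRNA ligase, Mycobacterium tuberculosis (UniProt P9WFT3). Tested at 10 µM. Higher most likely means stronger inhibition; the record gives no direction and few retests gave an IC50. Of about 65,000 compounds tested this way, about 64 (0.098%) reached 50% or more in at least one test.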
LiHisRS: 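Enzyme assay of histidyl-tRNA synthetase; the read-out is not stated. Target: Histidine-tRNA ligase, Leishmania infantum (UniProt A4I591). Concentration: 30 µM. Higher reads as stronger inhibition (inferred: compounds with an IC50 in retests scored well above the rest). The assay is labelled LdHisRS but filed under L. infantum. Of about 69,000 compounds tested this way, about 410 (0.6%) reached 50% or more in at least one test.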

Values are the deposited “Percent Effect”, in %. How 0% and 100% were set is not recorded. Most values in the screen are low, and negative values occur. The compounds are a random part of those screened. A dash means the value is not listed here; it may have been measured.

SMILES,CoaBC,Pks13 thioesterase,MtTrpRS,LiHisRS
COCCNC(=O)c1ccc2c(=O)n3c(nc2c1)CCCCCC3,0.2525,-20.12,-2.311,-2.632
Cc1cccc(C(=O)N2CCC3(CC2)CC(c2cnn(C)c2)CO3)c1 (stereo unspecified),7,-6.342,0.4691,10
CC(=O)c1ccc(Cl)c(Cl)c1OCC(=O)NCC(F)(F)F,5.697,0.3625,-4.046,7.895
CN(C)CCO[C@H]1CN(C(=O)c2ccc(C#N)cc2)[C@@H]2COC[C@H]12,-2.521,11.25,-1.569,10.91
COc1ccc(N2CCN(CC[C@H](O)c3ccccc3)CC2=O)cc1,6.79,-27.37,-4.326,12.9
CCC(CNC(=O)Nc1cnn(CC)c1)N1CCCC1 (stereo unspecified),1.542,-34.07,-4.485,7.865
CN1CCCC(c2cccc(Cc3ccccc3Cl)n2)C1 (stereo unspecified),0,-47.3,1.254,8.333
CC(C)CCN1CCN(c2ncnc3nc(N)ccc23)CC1,-0.9569,20.42,-1.068,5
CN1C(=O)CO[C@H](c2ccc(NC(=O)Cc3cccs3)cc2)[C@H]1CO,2.428,-4.673,-1.593,14.86
CC(C)NC(=O)N1CC[C@@H]2CN(Cc3ccccc3)S(=O)(=O)[C@@H]2CC1,12.34,-20.05,-1.308,1.504
O=S(=O)(c1c(Cl)nc2sccn12)N1CCC2(CCNCC2)C1,0.7453,-21.68,0.8258,14.29
Oc1ccc(CCC2CCCCN2Cc2noc(C3CC3)n2)cc1 (stereo unspecified),-2.76,-20.1,0.7538,25.66
COCCNC(=O)CN1CCN(c2nc(C)cs2)CC1,0.8717,-15.32,2.322,18.35
CN(C)C(=O)C1CCN(Cc2csc(C(C)(C)C)n2)CC1,2.362,-15.92,24.76,11.86
COc1nc(C)c(C(=O)N2CCC(C(O)Cc3ccccc3)CC2)s1 (stereo unspecified),12.59,-12.5,-1.566,12.59
O=C(O)CCCN1C[C@@H](c2ccccc2F)[C@@]2(CCCCC(=O)N2)C1,2.466,17.99,-6.069,5.634
Cc1ccc(Cl)cc1NC(=O)Nc1c[nH]c(=O)[nH]c1=O,-2.542,-0.08197,4.044,22.83
CNc1cc(C2CN(C(=O)c3ccn(C)n3)CCO2)nc(C)n1 (stereo unspecified),-5.031,-23.72,2.75,2.837
CC(=O)N1CCOCC(Cc2ccc3c(ccn3C(C)=O)c2)C1 (stereo unspecified),-6.658,45.99,-2.507,7.042
CO[C@H]1COCCN(Cc2c[nH]c3ccccc23)C1,5.643,-3.396,1.883,2.778
CN(C)CCN1C(=O)CCC12CCCN(C(=O)c1cccnc1)CC2 (stereo unspecified),-5.412,-43.34,-1.658,21.1
Cc1c(Cn2cc(Cl)c(N)n2)cnn1C,-5.295,-15.91,-2.676,2.941
CCc1nc(CN2CCCC(NCc3nc4cccnc4[nH]3)C2)no1 (stereo unspecified),0.5141,-39.44,-0.3934,1.124
Cc1nnc(-c2cccc(C#N)c2)n1C1CCCN(C(C)C)C1=O (stereo unspecified),6.399,-4.058,0.4591,10.84
Cc1cc(C(=O)N2CCCCC2c2nc(C)cs2)[nH]n1 (stereo unspecified),0.4819,-25,-2.158,-24.66
Cc1noc([C@]23COC[C@H]2CN(S(C)(=O)=O)C3)n1,1.025,-32.98,-5.307,12
CC[C@@H]1N(Cc2nccs2)CCC[C@]12CCC(=O)N2C,-0.2353,-47.76,1.327,19.27
CC(CNC(=O)N1CCN(c2ncccn2)CC1)Cc1cccs1 (stereo unspecified),11.09,-1.107,4.036,27.27
Cc1nccn1C1CCCN(C(=O)c2cccc(-n3cccc3)c2)C1 (stereo unspecified),5.974,-35.83,18.56,25
Cc1nc(N2CCCC2)ncc1-c1cc(O)nc(N2CCCC2)n1,5.249,-30.44,3.216,3.883
Cc1nc(N2CCCC2)ncc1-c1cc(O)nc(N2CCCCC2)n1,0.9238,-5.189,-3.368,3.448
COc1ccc(C[C@H]2CN(C(=O)C3CC3)CC[C@H]2OC)cc1,4.247,-21.08,3.634,17.31
Cc1ccccc1CN1CCCC1c1cncc(Nc2nncs2)n1 (stereo unspecified),4.988,-,-4.144,19.72
NC(=O)C1CCN(C(=O)c2ccn(-c3cccc(F)c3)n2)C1 (stereo unspecified),2.806,-6.895,-5.49,14.55
CC[C@H]1COCCN1C(=O)CCCn1nnc(-c2ccc(F)cc2)n1,-,-0.854,2.064,4.167
COc1cccc2c1OCC(C(=O)N1CCN(S(=O)(=O)N(C)C)CC1)C2 (stereo unspecified),-0.6031,4.432,-1.957,4
CCc1oc(C(=O)N2CCCC(c3nnn[nH]3)C2)cc1C (stereo unspecified),4.615,-20.34,-3.183,2.857
CCCc1cncnc1N1CCC(NCCc2ccc(O)cc2)CC1,-9.677,-29.57,-1.188,11.84
O=C(c1ccccc1OC1CCCC1)N1CCCC(n2cncn2)C1 (stereo unspecified),11.3,-15.23,-5.253,14.04
Cc1cccc(-n2ncc(C(=O)NCC3CCS(=O)(=O)C3)c2C)c1 (stereo unspecified),-0.2273,-26.41,0.000006,8.929
CN(C)CCN(C)S(=O)(=O)Cc1ccc(Br)cc1,-4.147,-,9.223,-5
Cc1ccc2oc(C(=O)N3CCCC(n4cccn4)C3)cc2n1 (stereo unspecified),1.316,-29.43,6.283,0.9259
CCOC(=O)C1(O)CCN(C(=O)Nc2cccc(CC)c2)CC1,7.753,-33.11,5.273,12
CN(C)C(=O)COC1COC2(CCN(CC3CC3)CC2)C1 (stereo unspecified),3.695,-16.26,-8.095,18
O=C(NCc1ccc(CN2CCCCC2)cc1)Nc1cccnc1,1.711,3.098,-4.307,11.29
Cc1cc(NC(C)c2n[nH]c(C)n2)n2nc(C)c(C)c2n1 (stereo unspecified),9.452,-9.031,-1.212,11.67
COCCC(=O)NCC(O)c1c(F)cccc1F (stereo unspecified),4.046,-2.846,-1.508,12.5
Cn1ccnc1-c1cn(CCc2nnc(N)s2)nn1,7.403,46.67,1.224,46.99
Cn1cnc2c1CCN(CC(O)c1ccc3c(c1)OCCO3)C2 (stereo unspecified),-1.006,0.995,2.886,23.08
CCc1nc(C)cn1C(=O)Nc1ccccc1,-1.104,15.09,-,-18.56
CCc1nc(CN2CCCN(C(=O)CCc3ccco3)CC2)cs1,5.222,-10.91,-0.8772,43.24
CC(=O)N1CCc2c(nc(-c3cccnc3)nc2N(C)CC(O)CO)C1 (stereo unspecified),-0.8157,-36.52,3.936,28.77
COc1ccc(CNc2cc(-c3nc(C)no3)ccn2)c(OC)c1,3.828,19.51,-3.981,10
CC(C)NC(=O)N1CCCC2(CC(C(=O)Nc3ccccc3)=NO2)C1 (stereo unspecified),11.11,-,12.25,9.722
c1coc(CN2CCCn3c(nnc3Cn3cccn3)C2)c1,-4.034,-9.947,-0.4188,2.655
CNS(=O)(=O)c1ccccc1N1CCN(C(C)C(=O)OC)CC1 (stereo unspecified),-0.9724,-,-1.125,12.7
CC(C)(C)c1n[nH]cc1CN1CCc2nc3ccsc3c(=O)n2CC1,-1.111,0.4517,-2.258,19.44
Cc1ccc(CNC(=O)CCSCc2csc(C)n2)cn1,2.057,-34.61,1.338,-21.35
COc1ccccc1CC(=O)N1CCN(Cc2ccco2)C[C@@H]1C,1.675,-6.105,-3.646,14.39

7 of the entries, repeated:

| SMILES | CoaBC | Pks13 thioesterase | MtTrpRS | LiHisRS |
|---|---|---|---|---|
| `Cn1ccnc1-c1cn(CCc2nnc(N)s2)nn1` | 7.403 | 46.67 | 1.224 | 46.99 |
| `O=C(O)CCCN1C[C@@H](c2ccccc2F)[C@@]2(CCCCC(=O)N2)C1` | 2.466 | 17.99 | -6.069 | 5.634 |
| `COc1ccc(N2CCN(CC[C@H](O)c3ccccc3)CC2=O)cc1` | 6.79 | -27.37 | -4.326 | 12.9 |
| `CC(C)CCN1CCN(c2ncnc3nc(N)ccc23)CC1` | -0.9569 | 20.42 | -1.068 | 5 |
| `Cc1c(Cn2cc(Cl)c(N)n2)cnn1C` | -5.295 | -15.91 | -2.676 | 2.941 |
| `CN(C)C(=O)COC1COC2(CCN(CC3CC3)CC2)C1` (stereo unspecified) | 3.695 | -16.26 | -8.095 | 18 |
| `CO[C@H]1COCCN(Cc2c[nH]c3ccccc23)C1` | 5.643 | -3.396 | 1.883 | 2.778 |